This passage reports binding results from patent US20120171699A1 (Merck KGaA, published 2012).

Sequences of proteins named here, by UniProt entry; tags and fusion partners are left off. A change or cut given only in a name is not applied to a line headed by its entry.
UniProt P08514: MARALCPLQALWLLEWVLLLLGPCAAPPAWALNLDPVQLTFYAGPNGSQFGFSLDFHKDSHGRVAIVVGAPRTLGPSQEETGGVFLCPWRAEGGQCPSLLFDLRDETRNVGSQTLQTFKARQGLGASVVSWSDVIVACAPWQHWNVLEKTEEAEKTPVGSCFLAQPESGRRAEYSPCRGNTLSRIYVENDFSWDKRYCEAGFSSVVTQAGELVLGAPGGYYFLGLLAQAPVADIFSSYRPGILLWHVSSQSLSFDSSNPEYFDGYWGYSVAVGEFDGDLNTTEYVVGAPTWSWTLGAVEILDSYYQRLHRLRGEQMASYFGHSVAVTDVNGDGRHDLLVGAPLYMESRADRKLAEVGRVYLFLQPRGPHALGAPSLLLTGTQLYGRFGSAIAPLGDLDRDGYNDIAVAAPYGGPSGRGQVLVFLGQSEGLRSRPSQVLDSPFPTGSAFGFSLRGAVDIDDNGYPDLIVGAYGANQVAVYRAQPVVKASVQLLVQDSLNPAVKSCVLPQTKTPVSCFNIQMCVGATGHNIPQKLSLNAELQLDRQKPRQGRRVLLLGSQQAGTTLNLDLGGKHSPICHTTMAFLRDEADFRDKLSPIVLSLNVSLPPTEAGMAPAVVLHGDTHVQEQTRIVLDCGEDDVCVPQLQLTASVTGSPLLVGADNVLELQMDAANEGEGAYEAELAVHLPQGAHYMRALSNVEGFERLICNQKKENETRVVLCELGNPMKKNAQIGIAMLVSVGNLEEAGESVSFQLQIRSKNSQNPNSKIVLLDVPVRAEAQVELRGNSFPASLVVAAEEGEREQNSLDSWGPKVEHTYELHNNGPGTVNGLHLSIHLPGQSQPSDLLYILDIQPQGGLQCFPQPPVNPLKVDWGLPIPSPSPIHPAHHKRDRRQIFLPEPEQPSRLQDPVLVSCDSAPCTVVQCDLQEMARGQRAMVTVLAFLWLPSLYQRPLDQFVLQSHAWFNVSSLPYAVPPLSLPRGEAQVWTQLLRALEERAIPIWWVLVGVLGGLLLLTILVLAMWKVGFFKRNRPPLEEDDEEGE

Experiment [1] addresses integrin αiibβ3 on M21-gpiib melanoma cells (UniProt P08514). Briefly: live cell flow cytometry on M21-gpiib cells.
Experiment [2] has the same target. Briefly: live cell flow cytometry on M21-gpiib melanoma cells.

Results are given in words; binding and its absence hold for the method and conditions named. Some results given as binding are weak or reduced against the parent protein; the word gives no strength.

B1: EM22703 (antibody, V domains shown)
VH: QSVKESEGGLFKPTDTLILTCTVSGFSLSSYGVSWVRQAPGNGLEYIGSISTTGITYYASWAKSRSTITRNTNLYTVTLKMTGLTAADTATYFCARGFPGHLRKPSDIWGPGTLVTVSA
VL: AQVLTQTPSSVSAAVGGTVSISCQSSESVYADIALSWFQQKPGQPPKLLIYGASTLASGVPSRFSGSGSGTEFTLTISDVQCDAAATYYCAGDYGAGTEPNLFGGGTEVVVSG
notes: Rabbit monoclonal; Hybridoma and recombinant forms are kept as one molecule
Turning to B1, the binding result in experiment [1] and in experiment [2] was “binds” throughout.
